According to publication PMC5342507:
These are yes or no findings as the source states them, for the method shown. In cells and extracts the contact can be indirect. Some results given as binding are weak or reduced against the parent protein; the word gives no strength.

By UniProt entry, the sequences of proteins in these tests, tags left out.
UniProt Q8TEK3: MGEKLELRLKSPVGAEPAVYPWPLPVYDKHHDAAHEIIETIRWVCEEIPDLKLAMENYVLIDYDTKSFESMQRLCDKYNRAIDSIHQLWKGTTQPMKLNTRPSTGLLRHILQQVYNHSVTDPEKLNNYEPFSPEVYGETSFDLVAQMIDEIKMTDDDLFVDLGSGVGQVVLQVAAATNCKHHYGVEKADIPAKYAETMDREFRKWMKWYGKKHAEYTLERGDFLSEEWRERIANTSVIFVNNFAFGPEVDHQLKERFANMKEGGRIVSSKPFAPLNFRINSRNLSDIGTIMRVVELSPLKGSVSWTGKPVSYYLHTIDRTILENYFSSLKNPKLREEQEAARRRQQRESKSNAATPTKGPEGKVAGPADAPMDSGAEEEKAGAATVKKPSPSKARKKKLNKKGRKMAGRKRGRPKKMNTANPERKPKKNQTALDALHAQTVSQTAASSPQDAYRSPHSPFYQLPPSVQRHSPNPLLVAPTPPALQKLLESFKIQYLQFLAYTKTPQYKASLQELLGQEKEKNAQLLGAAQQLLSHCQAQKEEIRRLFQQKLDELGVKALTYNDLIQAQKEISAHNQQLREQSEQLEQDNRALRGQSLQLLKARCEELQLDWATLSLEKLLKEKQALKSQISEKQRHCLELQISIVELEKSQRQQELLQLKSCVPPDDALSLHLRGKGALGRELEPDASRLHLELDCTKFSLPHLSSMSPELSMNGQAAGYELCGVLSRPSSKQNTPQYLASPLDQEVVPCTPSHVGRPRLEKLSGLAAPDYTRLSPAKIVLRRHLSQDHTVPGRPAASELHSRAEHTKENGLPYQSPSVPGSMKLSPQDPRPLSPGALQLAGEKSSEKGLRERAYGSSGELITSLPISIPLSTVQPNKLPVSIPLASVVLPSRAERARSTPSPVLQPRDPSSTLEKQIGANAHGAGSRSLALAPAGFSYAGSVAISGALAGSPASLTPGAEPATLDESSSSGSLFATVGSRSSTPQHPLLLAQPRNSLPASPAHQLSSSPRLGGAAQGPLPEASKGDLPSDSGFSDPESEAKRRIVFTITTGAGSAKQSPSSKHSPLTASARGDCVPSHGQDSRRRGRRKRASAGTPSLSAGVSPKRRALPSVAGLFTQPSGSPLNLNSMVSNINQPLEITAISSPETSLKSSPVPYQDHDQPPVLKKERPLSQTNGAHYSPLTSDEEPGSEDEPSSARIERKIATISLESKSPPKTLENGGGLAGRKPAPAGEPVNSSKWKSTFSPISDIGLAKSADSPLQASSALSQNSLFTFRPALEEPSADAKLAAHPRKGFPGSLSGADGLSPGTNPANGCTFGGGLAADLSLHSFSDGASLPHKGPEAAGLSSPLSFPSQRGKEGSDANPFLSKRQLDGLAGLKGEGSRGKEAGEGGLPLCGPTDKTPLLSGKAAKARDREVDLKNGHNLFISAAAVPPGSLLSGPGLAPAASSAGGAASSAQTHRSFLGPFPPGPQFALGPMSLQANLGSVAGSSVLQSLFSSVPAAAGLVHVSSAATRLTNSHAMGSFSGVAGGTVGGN
UniProt P17542: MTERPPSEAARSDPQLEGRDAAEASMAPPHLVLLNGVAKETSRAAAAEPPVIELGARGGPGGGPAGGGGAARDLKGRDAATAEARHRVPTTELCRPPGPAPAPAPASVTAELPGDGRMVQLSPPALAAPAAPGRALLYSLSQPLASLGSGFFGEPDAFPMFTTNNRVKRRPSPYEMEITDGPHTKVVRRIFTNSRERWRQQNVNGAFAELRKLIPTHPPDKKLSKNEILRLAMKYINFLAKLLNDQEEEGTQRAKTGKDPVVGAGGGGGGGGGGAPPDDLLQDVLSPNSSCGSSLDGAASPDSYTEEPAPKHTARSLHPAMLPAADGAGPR

Columns and labels:
[1] = target: T1, transcription factor ETS-1 (human (endogenous in HUVEC)) (UniProt P14921); assay: co-IP; total proteins from HUVECs; immunoprecipitation with antibodies against the endogenous proteins, then immunoblotting
T1 sequence: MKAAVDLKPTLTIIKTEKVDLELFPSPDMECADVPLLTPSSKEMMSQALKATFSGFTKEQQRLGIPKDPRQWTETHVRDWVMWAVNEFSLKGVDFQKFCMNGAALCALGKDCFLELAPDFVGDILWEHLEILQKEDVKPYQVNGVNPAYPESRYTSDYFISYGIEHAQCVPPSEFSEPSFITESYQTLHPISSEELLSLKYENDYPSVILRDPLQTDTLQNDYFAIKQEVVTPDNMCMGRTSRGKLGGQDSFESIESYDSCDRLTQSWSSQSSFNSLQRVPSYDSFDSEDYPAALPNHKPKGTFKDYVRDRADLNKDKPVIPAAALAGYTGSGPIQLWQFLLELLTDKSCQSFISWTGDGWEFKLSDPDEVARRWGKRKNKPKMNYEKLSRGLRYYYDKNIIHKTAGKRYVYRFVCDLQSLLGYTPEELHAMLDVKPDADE

[2] = target: DOT1L (DOT1-like histone H3K79 methyltransferase) (human (endogenous in HUVEC)) (UniProt Q8TEK3); assay: as above

| binding [1] | binding [2] | Substance |
| --- | --- | --- |
| binds |  | DOT1L (DOT1-like histone H3K79 methyltransferase) (from UniProt Q8TEK3 1-1537) |
|  | no binding | TAL-1 (from UniProt P17542 1-331) |
